Data on two substances can be found in paper PMC11333582.

Protein sequences, listed by entry. Tags and fused reporters are not part of them. Residues count along the entry.
UniProt P52480: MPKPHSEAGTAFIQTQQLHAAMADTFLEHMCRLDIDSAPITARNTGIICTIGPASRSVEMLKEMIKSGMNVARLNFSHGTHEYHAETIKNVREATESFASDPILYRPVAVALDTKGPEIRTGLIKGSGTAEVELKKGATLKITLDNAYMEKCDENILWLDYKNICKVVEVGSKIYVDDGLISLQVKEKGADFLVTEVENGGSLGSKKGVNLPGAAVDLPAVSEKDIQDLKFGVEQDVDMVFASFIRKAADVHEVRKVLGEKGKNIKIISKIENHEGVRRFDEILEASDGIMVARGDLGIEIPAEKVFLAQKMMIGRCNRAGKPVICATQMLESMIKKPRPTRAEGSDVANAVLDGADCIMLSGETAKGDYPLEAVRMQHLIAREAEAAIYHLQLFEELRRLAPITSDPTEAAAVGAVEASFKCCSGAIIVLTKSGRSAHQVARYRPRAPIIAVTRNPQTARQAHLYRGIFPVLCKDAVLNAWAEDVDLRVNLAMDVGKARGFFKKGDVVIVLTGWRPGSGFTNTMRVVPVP
UniProt Q01097, residues 27-1482: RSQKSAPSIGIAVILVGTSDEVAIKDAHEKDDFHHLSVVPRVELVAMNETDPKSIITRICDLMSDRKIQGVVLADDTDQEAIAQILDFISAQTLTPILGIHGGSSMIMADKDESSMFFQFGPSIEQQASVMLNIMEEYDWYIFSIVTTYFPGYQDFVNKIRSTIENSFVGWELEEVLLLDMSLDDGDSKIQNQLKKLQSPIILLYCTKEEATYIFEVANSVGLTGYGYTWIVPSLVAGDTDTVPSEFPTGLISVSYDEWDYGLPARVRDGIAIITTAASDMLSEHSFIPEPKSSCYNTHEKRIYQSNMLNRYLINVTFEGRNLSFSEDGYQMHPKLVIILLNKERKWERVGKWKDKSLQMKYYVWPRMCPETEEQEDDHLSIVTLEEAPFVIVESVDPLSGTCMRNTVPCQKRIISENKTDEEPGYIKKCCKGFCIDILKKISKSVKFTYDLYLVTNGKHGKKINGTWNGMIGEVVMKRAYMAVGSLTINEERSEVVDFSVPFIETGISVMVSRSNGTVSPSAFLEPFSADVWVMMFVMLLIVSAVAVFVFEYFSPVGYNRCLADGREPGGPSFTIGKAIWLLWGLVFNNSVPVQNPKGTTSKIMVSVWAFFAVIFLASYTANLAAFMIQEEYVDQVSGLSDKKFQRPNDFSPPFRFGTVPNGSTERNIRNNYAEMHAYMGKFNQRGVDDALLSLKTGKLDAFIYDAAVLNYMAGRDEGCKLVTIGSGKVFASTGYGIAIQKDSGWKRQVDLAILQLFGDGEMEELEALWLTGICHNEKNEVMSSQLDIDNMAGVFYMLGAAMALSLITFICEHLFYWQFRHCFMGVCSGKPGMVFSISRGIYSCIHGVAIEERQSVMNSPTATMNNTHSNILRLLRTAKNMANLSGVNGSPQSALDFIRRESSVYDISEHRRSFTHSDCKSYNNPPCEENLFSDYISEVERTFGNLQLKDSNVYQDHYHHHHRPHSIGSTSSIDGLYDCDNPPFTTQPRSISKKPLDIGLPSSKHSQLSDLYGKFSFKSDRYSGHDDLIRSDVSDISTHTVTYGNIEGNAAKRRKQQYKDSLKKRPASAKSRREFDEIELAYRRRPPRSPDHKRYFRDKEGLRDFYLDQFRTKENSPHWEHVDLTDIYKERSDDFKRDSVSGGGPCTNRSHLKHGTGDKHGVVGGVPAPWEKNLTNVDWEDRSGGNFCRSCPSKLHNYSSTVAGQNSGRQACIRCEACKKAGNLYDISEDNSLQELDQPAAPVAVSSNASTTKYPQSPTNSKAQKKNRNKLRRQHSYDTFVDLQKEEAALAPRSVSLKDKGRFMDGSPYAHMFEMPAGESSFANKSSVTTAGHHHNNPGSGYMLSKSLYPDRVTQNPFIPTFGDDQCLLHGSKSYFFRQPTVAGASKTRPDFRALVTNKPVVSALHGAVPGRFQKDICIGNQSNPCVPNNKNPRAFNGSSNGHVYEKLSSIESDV
UniProt Q9Z2W9, residues 23-888: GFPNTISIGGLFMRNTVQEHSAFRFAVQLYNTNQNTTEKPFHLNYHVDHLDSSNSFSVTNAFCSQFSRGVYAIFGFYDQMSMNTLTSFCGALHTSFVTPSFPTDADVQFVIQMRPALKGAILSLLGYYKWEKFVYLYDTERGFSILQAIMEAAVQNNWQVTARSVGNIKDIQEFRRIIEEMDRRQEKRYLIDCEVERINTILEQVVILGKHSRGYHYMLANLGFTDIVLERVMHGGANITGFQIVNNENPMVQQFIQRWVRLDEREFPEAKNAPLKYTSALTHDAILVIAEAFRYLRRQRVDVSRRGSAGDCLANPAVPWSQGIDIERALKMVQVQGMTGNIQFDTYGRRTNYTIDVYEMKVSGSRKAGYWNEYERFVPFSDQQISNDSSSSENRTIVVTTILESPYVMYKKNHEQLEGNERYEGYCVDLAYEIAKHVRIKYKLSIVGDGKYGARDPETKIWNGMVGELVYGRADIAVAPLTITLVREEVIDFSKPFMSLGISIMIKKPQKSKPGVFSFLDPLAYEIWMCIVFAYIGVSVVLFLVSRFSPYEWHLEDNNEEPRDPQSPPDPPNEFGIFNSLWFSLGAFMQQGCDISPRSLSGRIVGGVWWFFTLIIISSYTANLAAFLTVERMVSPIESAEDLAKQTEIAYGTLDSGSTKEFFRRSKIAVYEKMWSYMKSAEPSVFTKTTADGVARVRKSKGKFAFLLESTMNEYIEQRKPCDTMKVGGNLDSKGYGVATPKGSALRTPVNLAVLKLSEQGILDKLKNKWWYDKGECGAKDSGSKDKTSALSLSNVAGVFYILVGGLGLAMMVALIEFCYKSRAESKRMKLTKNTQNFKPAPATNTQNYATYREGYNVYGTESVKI

These are yes or no findings as the source states them, for the method shown. In cells and extracts the contact can be indirect. A yes stands for co-enrichment or nearness to the bait. Other partners may have been found.

In the assay the target is Pkm2 (mouse (endogenous in mPFC)) (UniProt P52480). Put plainly: affinity purification with mass spectrometry; immunoprecipitation with anti-Pkm2 antibody (1:50, overnight) from PSD extracts of mouse mPFC (methods: cerebral cortex in RIPA lysis buffer); rabbit IgG as negative IP control; SDS-PAGE bands cut, LC-MS (Q Exactive Plus, MaxQuant).

Turning to “Nr2b (from UniProt Q01097 27-1482) (receptor)”, the binding result is reported as “binds”.
Take “GluA3 (from UniProt Q9Z2W9 23-888) (receptor)”: the binding entry was “binds”.
